No constants are given. Whether binding was seen depends on the method and setting. Binding seen in cells or lysates may run through a third protein. Some entries that bind do so weakly or less than the wild type.
Molecular target: Mcl-1 (human (endogenous in M28)), Q07820
Assay: co-IP; M28 spheroids untreated or treated with bortezomib (100 nM), vorinostat (5 uM) or both for 4 h; lysed in 1% CHAPS, 10 mM HEPES pH 7.4, 150 mM NaCl; Mcl-1 antibody (SC-189) on Sepharose Protein G, 4 C; immunoblot for Noxa and Bim
Conditions: remark: other sources report otherwise

binding: binds
B1: Noxa, Q13794 1-54 (protein)
chain: MPGKKARKNAQPSPARAPAELEVECATQLRRFGDKLNFRQKLLNLISKLFCSGT
